From PMC11137105
These are yes or no findings as the source states them, for the method shown. For some assays here: In cells and extracts the contact can be indirect. Some results given as binding are weak or reduced against the parent protein; the word gives no strength.

Protein sequences, listed by entry. Tags and fused reporters are not part of them.
UniProt P60484: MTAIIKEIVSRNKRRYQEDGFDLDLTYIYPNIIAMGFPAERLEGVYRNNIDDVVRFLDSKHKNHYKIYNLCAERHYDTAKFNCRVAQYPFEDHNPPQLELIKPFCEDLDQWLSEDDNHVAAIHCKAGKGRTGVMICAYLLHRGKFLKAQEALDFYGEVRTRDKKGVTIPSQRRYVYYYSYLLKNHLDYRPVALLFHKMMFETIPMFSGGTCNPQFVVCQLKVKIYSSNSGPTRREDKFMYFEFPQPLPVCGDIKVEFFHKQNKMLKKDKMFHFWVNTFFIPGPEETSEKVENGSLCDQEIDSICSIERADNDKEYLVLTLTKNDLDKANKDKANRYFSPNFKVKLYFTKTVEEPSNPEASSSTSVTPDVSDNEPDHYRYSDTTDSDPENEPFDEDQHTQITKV

What was measured:
[1] = molecular target: PTEN (phosphatase and tensin homolog) (human (endogenous in MCF-7)) (UniProt P60484); assay: co-IP; MCF-7 cells lysed in RIPA buffer with 0.5 mM PMSF and protease inhibitors; cleared lysate with a specific antibody overnight at 4 °C, protein A-Sepharose beads 2 h; blot with anti-PTEN or anti-HSD17B8; PTEN knock-down line as control
[2] = molecular target: PTEN (phosphatase and tensin homolog) (human (endogenous in MCF-7)) (UniProt P60484); assay: native gel or EMSA; native PAGE of protein extracted from MCF-7 cells, untreated or treated with 1 mM H2O2; nonreducing nondenaturing sample buffer, no SDS, separated on ice; immunoblot

B1: estradiol 17-beta-dehydrogenase 8 (HSD17B8) (protein, UniProt Q92506 1-261)
chain: MASQLQNRLRSALALVTGAGSGIGRAVSVRLAGEGATVAACDLDRAAAQETVRLLGGPGSKEGPPRGNHAAFQADVSEARAARCLLEQVQACFSRPPSVVVSCAGITQDEFLLHMSEDDWDKVIAVNLKGTFLVTQAAAQALVSNGCRGSIINISSIVGKVGNVGQTNYAASKAGVIGLTQTAARELGRHGIRCNSVLPGFIATPMTQKVPQKVVDKITEMIPMGHLGDPEDVADVVAFLASEDSGYITGTSVEVTGGLFM
binding [1]: binds | binding [2]: binds
